PubChem BioAssay AID1259405 | NCATS | 2018
In all, the deposit lists about 50,000 reagents; this is an unselected part. Over the whole deposit, about 4,000 (8%) are marked active. 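Mouse siRNA library applied to hamster cells; one well for each siRNA.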 The numbers tell different reagents against one gene apart. No sequences are given here.

Test: 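Silenced genes that increase secreted GFP made by CHO cells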 (primary screen)
System: Chinese hamster CHO-K1 ovary cells with stable secreted eGFP expression
Reagents: single siRNA against mouse genes, 0.8 pmol siRNA per well (2 µl of 400 nM stock)
Duration: 3 days
Measured: 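Per-well intracellular GFP measured by laser scanning cytometry, plus viability from ATP luminescence, each relative to plate median of non-targeting control wells, in %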
Direction: GFP, % of control: higher = more GFP per well, higher productivity; viability (ATP), % of control: higher = more viable cells (more ATP)
Call rule: 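a knock-down is called active if GFP reaches 120% or more of non-targeting control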

Target gene,reagent no.,"GFP, % of control","viability (ATP), % of control",Outcome
Nsun3,1,66.1,48.2,inactive
Nsun3,2,94.1,80.3,inactive
Nsun3,3,69.9,74.3,inactive
Cd300e,1,58.2,44.9,inactive
Cd300e,2,63,57.3,inactive
Cd300e,3,64.6,63.5,inactive
Ccdc122,1,64.9,97.3,inactive
Ccdc122,2,84.9,83.2,inactive
Ccdc122,3,129,136,active
Utp18,1,48.1,46.6,inactive
Utp18,2,97.4,88.7,inactive
Utp18,3,84.4,86.8,inactive
Fam20a,1,53.9,57.3,inactive
Fam20a,2,79.3,94.6,inactive
Fam20a,3,104,90.9,inactive
Or2aj5,1,28.4,18.1,inactive
Or2aj5,2,124,47,active
Or2aj5,3,63.7,78.3,inactive
Pycr1,1,78.5,95.3,inactive
Pycr1,2,75.5,48.9,inactive
Pycr1,3,128,75.4,active
Mnx1,1,111,103,inactive
Mnx1,2,94.8,101,inactive
Mnx1,3,121,92.2,active
Samhd1,1,68.6,107,inactive
Samhd1,2,74.4,81.3,inactive
Samhd1,3,76.9,77.1,inactive
Galntl6,1,95.5,80.8,inactive
Galntl6,2,62.5,68.6,inactive
Galntl6,3,72.8,73.1,inactive

6 of these entries, reformatted:
{"Target gene": "Mnx1", "reagent no.": 1, "GFP, % of control": 111, "viability (ATP), % of control": 103, "Outcome": "inactive"}
{"Target gene": "Mnx1", "reagent no.": 2, "GFP, % of control": 94.8, "viability (ATP), % of control": 101, "Outcome": "inactive"}
{"Target gene": "Mnx1", "reagent no.": 3, "GFP, % of control": 121, "viability (ATP), % of control": 92.2, "Outcome": "active"}
{"Target gene": "Samhd1", "reagent no.": 1, "GFP, % of control": 68.6, "viability (ATP), % of control": 107, "Outcome": "inactive"}
{"Target gene": "Samhd1", "reagent no.": 2, "GFP, % of control": 74.4, "viability (ATP), % of control": 81.3, "Outcome": "inactive"}
{"Target gene": "Samhd1", "reagent no.": 3, "GFP, % of control": 76.9, "viability (ATP), % of control": 77.1, "Outcome": "inactive"}

More results follow.
Target gene,reagent no.,"GFP, % of control","viability (ATP), % of control",Outcome
Ppm1a,1,79.5,66.2,inactive
Ppm1a,2,53.8,44.2,inactive
Ppm1a,3,92.3,82.8,inactive
Chd9,1,87.9,82.7,inactive
Chd9,2,81.8,66,inactive
Chd9,3,111,74.2,inactive
Cdc7,1,68.5,45.9,inactive
Efna2,1,42,57.2,inactive
Efna2,2,69.3,73.7,inactive
Efna2,3,115,67,inactive
Atmin,1,107,86.2,inactive
Atmin,2,73.8,77.6,inactive
Atmin,3,72.1,72.7,inactive
Unc5d,1,81.2,89.9,inactive
Unc5d,2,43.5,73.5,inactive
Unc5d,3,55.5,69.8,inactive
Zbtb21,1,99.9,92.8,inactive
Zbtb21,2,110,80.1,inactive
Zbtb21,3,69.1,80,inactive
Unc13a,1,47.9,97.9,inactive
Unc13a,2,99.4,112,inactive
Unc13a,3,102,90.7,inactive
Lgi4,1,130,92.4,active
Lgi4,2,88.2,78.7,inactive
Lgi4,3,61.7,53.1,inactive
Pde1b,1,87.6,91.9,inactive
Pde1b,2,83.9,78.9,inactive
Pde1b,3,68.4,65.8,inactive
Erfe,1,79.7,77.8,inactive
Erfe,2,85.1,50.6,inactive
Erfe,3,82.5,35.7,inactive
Pcdhga11,1,79.5,85.5,inactive
Pcdhga11,2,37.2,61.3,inactive
Pcdhga11,3,32.9,54.2,inactive
Tyrobp,1,189,80.3,active
Tyrobp,2,69,58.3,inactive
Tyrobp,3,63.1,78.1,inactive
Il6,1,127,137,active
Il6,2,107,89,inactive
Lce3b,1,43.8,54,inactive
Lce3b,2,129,76.8,active
Lhpp,1,107,85.2,inactive
Lhpp,2,82.1,75.3,inactive
Lhpp,3,78.6,92.7,inactive
Rhoq,1,119,105,inactive
Rhoq,2,92,94.9,inactive
Rhoq,3,73,91.2,inactive
Arf6,1,115,87.1,inactive
Arf6,2,77.5,47.6,inactive
Arf6,3,85.8,92,inactive
Uqcr11,1,67.9,81.3,inactive
Uqcr11,2,50.7,59.4,inactive
Uqcr11,3,55.3,36.3,inactive
Slc7a6os,1,74.1,55.7,inactive
Slc7a6os,2,107,78.7,inactive
Slc7a6os,3,81.2,82.8,inactive
